Assay results as given in patent US20130196383A1, “Method of Producing Dicer” (published 2013).

Chains of the proteins cited; added tags and fusions are not shown. Chains listed by the source or under a name are the forms on record and can include a tag or linker.
hDcr-N/hDcr-C complex (Homo sapiens), one chain, as listed by the source: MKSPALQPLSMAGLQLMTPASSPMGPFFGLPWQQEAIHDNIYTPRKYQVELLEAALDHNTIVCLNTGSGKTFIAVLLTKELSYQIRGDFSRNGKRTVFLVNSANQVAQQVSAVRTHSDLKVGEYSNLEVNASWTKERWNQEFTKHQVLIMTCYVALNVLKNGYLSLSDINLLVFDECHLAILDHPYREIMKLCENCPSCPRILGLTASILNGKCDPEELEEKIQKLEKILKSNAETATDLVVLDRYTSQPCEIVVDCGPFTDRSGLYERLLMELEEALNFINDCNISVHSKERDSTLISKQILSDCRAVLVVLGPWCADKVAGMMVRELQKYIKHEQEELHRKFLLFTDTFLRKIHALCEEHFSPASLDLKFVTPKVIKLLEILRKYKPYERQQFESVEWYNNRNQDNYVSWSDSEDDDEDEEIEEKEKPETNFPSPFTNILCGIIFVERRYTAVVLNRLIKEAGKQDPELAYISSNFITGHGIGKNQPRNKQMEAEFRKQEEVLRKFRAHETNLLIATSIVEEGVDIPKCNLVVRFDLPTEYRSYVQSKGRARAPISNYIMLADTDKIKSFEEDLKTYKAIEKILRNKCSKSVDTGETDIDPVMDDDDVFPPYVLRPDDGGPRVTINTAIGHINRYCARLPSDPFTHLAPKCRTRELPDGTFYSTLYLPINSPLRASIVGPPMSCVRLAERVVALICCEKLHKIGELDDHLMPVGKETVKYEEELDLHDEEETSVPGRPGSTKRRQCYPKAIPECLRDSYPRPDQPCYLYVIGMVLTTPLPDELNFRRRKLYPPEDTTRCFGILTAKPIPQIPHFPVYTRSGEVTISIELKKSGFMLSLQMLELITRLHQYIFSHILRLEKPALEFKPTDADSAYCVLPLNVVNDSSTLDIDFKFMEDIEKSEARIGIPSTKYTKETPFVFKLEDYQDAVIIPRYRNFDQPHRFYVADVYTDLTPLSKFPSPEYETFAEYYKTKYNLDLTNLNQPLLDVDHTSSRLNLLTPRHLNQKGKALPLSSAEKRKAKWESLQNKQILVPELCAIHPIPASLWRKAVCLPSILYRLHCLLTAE
DP/hDcr-C complex (Homo sapiens), one chain, as listed by the source: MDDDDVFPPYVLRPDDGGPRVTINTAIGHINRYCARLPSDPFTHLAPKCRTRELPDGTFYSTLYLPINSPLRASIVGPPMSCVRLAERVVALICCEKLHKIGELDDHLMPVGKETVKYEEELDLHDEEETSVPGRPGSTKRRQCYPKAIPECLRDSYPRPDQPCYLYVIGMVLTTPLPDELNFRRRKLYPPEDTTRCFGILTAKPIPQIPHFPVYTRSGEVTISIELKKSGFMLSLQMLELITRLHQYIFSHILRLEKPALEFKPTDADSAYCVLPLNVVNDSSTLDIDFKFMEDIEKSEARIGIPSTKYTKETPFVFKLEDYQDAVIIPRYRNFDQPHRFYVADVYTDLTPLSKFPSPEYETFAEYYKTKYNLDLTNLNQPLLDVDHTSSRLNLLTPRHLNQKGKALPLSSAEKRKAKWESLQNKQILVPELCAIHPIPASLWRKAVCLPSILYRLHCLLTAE

Assays:
Test in all cases: enzyme reaction in vitro
[1] = biological target: T1, hDcr-C (RNase IIIa/IIIb-dsRBD) fragment of human Dicer (Homo sapiens) (UniProt Q9UPY3); details: mainly 15-nt product, purified recombinant protein, protein details: expressed from pHMGWA-His6-MBP vector, E. coli
T1 sequence: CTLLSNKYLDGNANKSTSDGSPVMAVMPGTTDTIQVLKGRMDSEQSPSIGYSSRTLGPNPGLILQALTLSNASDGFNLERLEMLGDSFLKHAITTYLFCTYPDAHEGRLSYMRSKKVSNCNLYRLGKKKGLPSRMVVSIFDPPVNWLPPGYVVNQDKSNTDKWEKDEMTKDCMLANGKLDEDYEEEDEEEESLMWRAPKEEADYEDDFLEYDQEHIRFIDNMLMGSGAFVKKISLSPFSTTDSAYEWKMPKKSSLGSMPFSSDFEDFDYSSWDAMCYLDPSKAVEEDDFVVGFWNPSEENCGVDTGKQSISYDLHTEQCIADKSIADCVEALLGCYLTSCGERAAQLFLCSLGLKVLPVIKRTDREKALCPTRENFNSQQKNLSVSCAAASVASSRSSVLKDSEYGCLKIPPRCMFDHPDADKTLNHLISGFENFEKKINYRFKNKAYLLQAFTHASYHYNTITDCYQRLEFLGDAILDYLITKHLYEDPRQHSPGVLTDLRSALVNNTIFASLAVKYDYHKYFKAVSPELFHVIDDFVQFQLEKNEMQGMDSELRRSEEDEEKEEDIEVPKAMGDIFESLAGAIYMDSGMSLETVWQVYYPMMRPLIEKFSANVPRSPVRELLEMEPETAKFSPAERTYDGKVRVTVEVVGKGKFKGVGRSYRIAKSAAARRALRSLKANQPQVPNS

[2] = biological target: Human Dicer full-length (FL-hDcr) (Homo sapiens) (UniProt Q9UPY3); details: unfavorable substrate, similar to 37ab; purified recombinant protein; protein details: baculovirus-infected Sf9 expressed; label: 5'-32P; variant of pre-hlet-7a-1
[3] = biological target: human Dicer lacking ATPase/helicase domain (Homo sapiens) (UniProt Q9UPY3); details: all substrates cleaved in similar manner, purified recombinant protein
[4] = system: DP/hDcr-C complex (Homo sapiens); details: DP addition restores full-length dicing pattern; purified recombinant protein; protein details: E. coli expressed, mixed in trans; label: 5'-32P on one strand (37a)
[5] = system: hDcr-N/hDcr-C complex (Homo sapiens); details: activity similar to FL-hDcr; 1.5 mM MgCl2; purified recombinant protein; protein details: co-expressed in Sf9, Ni2+ column then TEV cleavage; label: 5'-32P on one strand (37a)
[6] = label: 5'-32P on one strand (37a)

With “UAAAGUGCUUAUAGUGCAGGUAGUGUGUAGCCAUCUACUGCAUUACGAGCACUUAAAG [pre-miR20a]” the “activity on this sequence” value ([1]; label: 5'-32P) was “active”.
In the case of “UGAGGUAGUAGGUUGUAUAGUUUGAAAGUUCACGAUU / AAUCGUGAACUUUCAAACUAUACAAUCUACUGUCUUACC [hlet7-stem]”, the “activity on this sequence” value [2] is reported as “less active” and the “activity on this sequence” value ([3]; label: 5'-32P, variant of pre-hlet-7a-1) is reported as “active”.
With “UGAGGUAGUAGGUUGUAUAGUUUGAAAGUUCACGAUU / UCGUGAACUUUCAAACUAUACAACCUACUACCUCAUU [37ab]” the “activity on this sequence” value [4] was “active”, the “activity on this sequence” value [1, 6] was “active” and the “activity on this sequence” value [5] was “active”. The “activity on this sequence” value [3, 6] was “active”.

For some of these results: The comparison behind a weaker result is the experiment's own reference, which may not be listed here. For some of these results: Tags and fusion partners may be left off the protein sequences shown.
